Results taken from PMC6277709, “Lipid-Modified Azurin of Neisseria gonorrhoeae Is Not Surface Exposed and Does Not Interact With the Nitrite Reductase AniA” (Frontiers in Microbiology, 2018).
Results are given in words; binding and its absence hold for the method and conditions named.

Amino acid sequences for entries named in this document (tags omitted). Residues count along the entry.
UniProt P07211, residues 19-183: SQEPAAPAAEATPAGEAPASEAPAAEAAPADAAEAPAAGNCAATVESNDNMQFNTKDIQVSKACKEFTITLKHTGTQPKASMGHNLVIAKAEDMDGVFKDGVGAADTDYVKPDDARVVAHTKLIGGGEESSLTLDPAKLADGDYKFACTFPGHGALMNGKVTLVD

Molecular target: Purified Laz (for biolayer interferometry) (N. gonorrhoeae) (UniProt P07211)
Test: BLI; purified Laz immobilised to a BLI sensor and incubated in increasing concentrations of AniA; both purified

B1: Nitrite reductase AniA of Neisseria gonorrhoeae FA1090, endogenous in living gonococci (enzyme)
chain: CGGEQAAQAPAETPAASAEAASSAAQATAETPAGELPVIDAVTTHAPEVPPAIDRDYPAKVRVKMETVEKTMKMDDGVEYRYWTFDGDVPGRMIRVREGDTVEVEFSNNPSSTVPHNVDFHAATGQGGGAAATFTAPGRTSTFSFKALQPGLYIYHCAVAPVGMHIANGMYGLILVEPKEGLPKVDKEFYIVQGDFYTKGKKGAQGLQPFDMDKAVAEQPEYVVFNGHVGSIAGDNALKAKAGETVRMYVGNGGPNLVSSFHVIGEIFDKVYVEGGKLINENVQSTIVPAGGSAIVEFKVDIPGSYTLVDHSIFRAFNKGALGQLKVEGAENPEIMTQKLSDTAYAGSGAASAPAASAPAASAPAASASEKSVY
notes: source: endogenous, living N. gonorrhoeae FA1090 (WT and Δlaz) cells
  binding: no binding
